SMILES strings stand for the structures. In all, about 1,600 compounds went through this assay and about 20 (1%) were called active.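 The calls were made as follows: active = ratio of uncleaved NAD to its breakdown product ADP-ribose above 4, meaning the enzyme was inhibited; inactive = the rest.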 The list shows a part of the results.

Protein sequences, listed by entry. Tags and fused reporters are not part of them. Lines headed by an entry give the natural chain unless they say otherwise; changes in a name come on top.
UniProt Q6SZW1: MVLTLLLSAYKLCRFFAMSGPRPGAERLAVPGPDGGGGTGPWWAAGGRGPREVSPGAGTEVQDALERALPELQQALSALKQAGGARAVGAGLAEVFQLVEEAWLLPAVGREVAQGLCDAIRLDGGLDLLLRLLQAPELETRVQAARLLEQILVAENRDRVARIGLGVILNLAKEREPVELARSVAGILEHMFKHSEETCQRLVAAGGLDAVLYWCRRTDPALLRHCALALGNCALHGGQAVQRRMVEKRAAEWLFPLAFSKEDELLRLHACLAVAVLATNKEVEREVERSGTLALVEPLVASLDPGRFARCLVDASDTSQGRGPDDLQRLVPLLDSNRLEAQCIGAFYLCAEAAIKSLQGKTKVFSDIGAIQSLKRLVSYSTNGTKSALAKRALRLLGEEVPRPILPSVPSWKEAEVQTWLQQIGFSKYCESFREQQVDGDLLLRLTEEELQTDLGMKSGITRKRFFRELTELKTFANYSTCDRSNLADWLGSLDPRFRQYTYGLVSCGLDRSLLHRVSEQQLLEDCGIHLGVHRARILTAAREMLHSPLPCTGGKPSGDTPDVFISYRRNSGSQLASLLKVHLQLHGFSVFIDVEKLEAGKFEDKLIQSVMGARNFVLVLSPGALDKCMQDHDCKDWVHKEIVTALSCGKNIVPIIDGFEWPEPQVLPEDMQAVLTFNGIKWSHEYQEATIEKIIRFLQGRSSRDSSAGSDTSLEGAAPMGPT

This test deals with NAD(+) hydrolase SARM1 (Homo sapiens) (UniProt Q6SZW1). The test can be described thus: inhibition of SAM-TIR NAD hydrolysis to ADPR – cell lysate, HPLC readout, primary screen (AID 1508615).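 Also: substrate NAD at 5 µM with 60 min at 37 °C.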 To be noted: HEK293T SAM-TIR lysate, NAD/ADPR ratio by HPLC; at 5 µM; active compounds read high.
As for `Cc1nnc2nc(N)[nH]n2c1=O`, the NAD/ADPR ratio is inactive: 3.

For the compound `CCOC(=O)Nc1c2ccccc2nc2ccccc12`, the NAD/ADPR ratio is inactive: 3.

Turning to `CS(=O)(=O)Oc1ccc(Br)c2cccnc12`, the NAD/ADPR ratio is inactive: 3.

With `O=C(Nc1ccc2ccccc2c1)c1ccc(Cl)cc1Cl`, the NAD/ADPR ratio was inactive: 3.

For the compound `COc1ccc(Cc2nnc(SC)n2-c2ccc(F)cc2)cc1OC`, the NAD/ADPR ratio was inactive: 3.

Take `CCOC(=O)C1CC(=O)c2cc(OC)c(OC)cc2C1` (stereo unspecified): the NAD/ADPR ratio is inactive: 3.

Take `COc1ccc(N=Nc2ccc(N)nc2N)cc1`: the NAD/ADPR ratio was inactive: 3.

On to `COc1cc(C(=O)C(=O)c2ccc(O)c(OC)c2)ccc1O`, for which the NAD/ADPR ratio is inactive: 3.

Consider `Oc1ccc(Nc2ccc3ccccc3c2)cc1`, for which the NAD/ADPR ratio is inactive: 3.

As for `Cc1nc(C2CCC3C4CCC5=CC(=O)CC[C@]5(C)C4CC[C@]23C)cs1` (stereo partly specified), the NAD/ADPR ratio was inactive: 3.

As for `COc1cc2c(=O)n3c4c(cccc4c2cc1OC)CC3`, the NAD/ADPR ratio was inactive: 3.

Turning to `COc1ccc(C(C)=O)cc1CO/N=C1\CSCc2ccccc21`, the NAD/ADPR ratio was inactive: 3.

With `CCOC(=O)C1C(=O)C(=O)N(C(C)C)C1C(=O)OCC` (stereo unspecified), the NAD/ADPR ratio is inactive: 3.

Take `Nc1ncc2[nH]c(N)nc2n1`: the NAD/ADPR ratio is inactive: 3.

On to `O=C(NC1(N2CCOCC2)CC1)c1ccc(Cl)cc1`, for which the NAD/ADPR ratio is inactive: 3.

As for `Nc1ncnc2c1cnn2C1CCCCC1`, the NAD/ADPR ratio was inactive: 3.

As to `Nc1nc2c(ncn2C2CCCC2)c(=O)[nH]1`, the NAD/ADPR ratio was inactive: 3.

Take `CCCCC(=O)N1CCCC(C)C1` (stereo unspecified): the NAD/ADPR ratio was inactive: 3.

As to `CCN(CC)CCNc1c(C)cc(CO)c(Cl)c1C`, the NAD/ADPR ratio was inactive: 3.

As for `CC(=O)Oc1c(C)c(OC(C)=O)c2c(c1C(C)=O)OC1CC(=O)C(C(C)=O)=C(O)C21C` (stereo unspecified), the NAD/ADPR ratio was inactive: 3.

With `Cc1oc2c(c(C)nn2-c2ccccc2)c(=O)c1Cl`, the NAD/ADPR ratio is inactive: 3.

Regarding `O=c1cccc2cc(O)c(O)c(O)c2c1O`, the NAD/ADPR ratio was inactive: 3.

With `CC(C)NC(=O)Nc1cccc(Cl)c1`, the NAD/ADPR ratio is inactive: 3.

As for `Cc1c(Cl)cccc1Nc1ncccc1C(=O)OCC(O)CO` (stereo unspecified), the NAD/ADPR ratio is inactive: 3.

For `O=C(Nc1cccc(Cl)c1)Nn1cnnc1`, the NAD/ADPR ratio is inactive: 3.

With `CCN(CC)c1ccc(C(=C2C=CC(=[N+](CC)CC)C=C2)c2ccc(N(CC)CC)cc2)cc1`, the NAD/ADPR ratio is inactive: 3.

As for `O=C1C2C3C=CC(O3)C2C(=O)N1Nc1ccccc1` (stereo unspecified), the NAD/ADPR ratio was inactive: 3.

Consider `FC(F)(F)c1cccc(-c2nc3nc(Cl)c(Cl)nc3[nH]2)c1`, for which the NAD/ADPR ratio is inactive: 3.

Regarding `Cc1ccc(C2C=CC(C#N)=CN2Cc2ccccc2)cc1` (stereo unspecified), the NAD/ADPR ratio was inactive: 3.

For `CCOc1ccc(NC(=O)C2CCCN(C)C2)cc1` (stereo unspecified), the NAD/ADPR ratio was active: 11.2.

Turning to `CCOC(=O)C(=O)Cc1nc2ccccc2s1`, the NAD/ADPR ratio was inactive: 3.

Turning to `NC(=O)c1ccc(Cl)c2ccccc12`, the NAD/ADPR ratio is inactive: 3.

Consider `c1ccc(Sc2ncnc3ccccc23)cc1`, for which the NAD/ADPR ratio was inactive: 3.

For the compound `CN(C)C(=O)c1cccc(COc2ccc(N3C(N)=NC(N)=NC3(C)C)cc2Cl)c1`, the NAD/ADPR ratio was inactive: 3.

In the case of `O=C(Nc1ccccc1)Nc1ccccn1`, the NAD/ADPR ratio is inactive: 3.

Turning to `COC(=O)C1CC(O)C(O)C(O)C1` (stereo unspecified), the NAD/ADPR ratio is inactive: 3.

Regarding `c1ccc2cc(OCCOCCOc3ccc4ccccc4c3)ccc2c1`, the NAD/ADPR ratio is inactive: 3.

Take `Cc1cc(=O)c2c(=O)[nH][nH]c2[nH]1`: the NAD/ADPR ratio is inactive: 3.

Turning to `Nc1ccccc1-c1nc2ccncc2[nH]1`, the NAD/ADPR ratio is inactive: 3.

For `CCOC(=O)c1c(O)cc(C)[nH]c1=O`, the NAD/ADPR ratio is inactive: 3.

Take `c1ccc(-c2cn3ccccc3n2)cc1`: the NAD/ADPR ratio was inactive: 3.

Take `Oc1ccc(-c2nc3ccccc3s2)c(O)c1`: the NAD/ADPR ratio is inactive: 3.

In the case of `CC(=O)Nc1ccc(S(=O)(=O)N/N=c2/sc3ccccc3n2C)cc1N`, the NAD/ADPR ratio was inactive: 3.

For the compound `O=C(Nc1ccccc1)Oc1ccc[nH]c1=O`, the NAD/ADPR ratio was inactive: 3.

Take `CC(=O)CC[N+](C)(C)C`: the NAD/ADPR ratio is inactive: 3.

For the compound `O=C(O)c1ccc(N2CCCCC2)cc1O`, the NAD/ADPR ratio was inactive: 3.

As for `CC1=CC(C)(C(Cl)(Cl)Cl)C(C)=C/C1=N/O` (stereo unspecified), the NAD/ADPR ratio is inactive: 3.

Consider `CC(=O)NCCCOc1ccc([N+](=O)[O-])cc1Cl`, for which the NAD/ADPR ratio was inactive: 3.

`C(COC1CC2CC1C1C2CC2OC21)OC1CC2CC1C1C2CC2OC21` (stereo unspecified): the NAD/ADPR ratio was inactive: 3.

With `[O-][n+]1nc2ccccc2c2ccccc21`, the NAD/ADPR ratio is inactive: 3.

Take `C=CCOc1ccc(S(C)(=O)=O)cc1`: the NAD/ADPR ratio was inactive: 3.

Consider `OCc1nc2nc(Cl)c(Cl)nc2[nH]1`, for which the NAD/ADPR ratio was inactive: 3.

`CCC1(CC)C(=O)NC(=S)N=C1N`: the NAD/ADPR ratio was inactive: 3.

As to `Cc1nc2ccccc2nc1NS(=O)(=O)c1ccc(N)cc1`, the NAD/ADPR ratio was inactive: 3.

As to `O=C(Nc1cccc([N+](=O)[O-])c1)c1cccc(C(=O)Nc2cccc([N+](=O)[O-])c2)c1`, the NAD/ADPR ratio is inactive: 3.

On to `Cc1ccc(N=Nc2ccc(N)cc2C)c(S(N)(=O)=O)c1`, for which the NAD/ADPR ratio is inactive: 3.

Consider `Cn1ncc2c(Nc3ccccc3Cl)nc(Cl)nc21`, for which the NAD/ADPR ratio was inactive: 3.

As to `O=C(Nc1cccc2ccccc12)c1cc2c(cc1Br)OCO2`, the NAD/ADPR ratio is inactive: 3.

Consider `NC(=O)SCC(=O)Nc1ccccc1C(=O)O`, for which the NAD/ADPR ratio was inactive: 3.

As to `CN(C)C(=S)/N=c1\ssc(=S)n1Cc1ccco1`, the NAD/ADPR ratio is inactive: 3.

As to `CCN(CC)C(=O)Cn1ccc(NC(C)=O)nc1=O`, the NAD/ADPR ratio is inactive: 3.

These data come from PubChem BioAssay AID1508615 (Milbrandt Lab, Department of Genetics, Washington …, 2020).
